Measured values as given in article PMC3384629.
Read-outs that look alike come from different tables or passages of the source. No constants are given. Whether binding was seen depends on the method and setting. Binding seen in cells or lysates may run through a third protein. Some binding calls cover weakened binding; strength is not graded here.

Amino acid sequences for entries named in this document (tags omitted).
UniProt Q60631: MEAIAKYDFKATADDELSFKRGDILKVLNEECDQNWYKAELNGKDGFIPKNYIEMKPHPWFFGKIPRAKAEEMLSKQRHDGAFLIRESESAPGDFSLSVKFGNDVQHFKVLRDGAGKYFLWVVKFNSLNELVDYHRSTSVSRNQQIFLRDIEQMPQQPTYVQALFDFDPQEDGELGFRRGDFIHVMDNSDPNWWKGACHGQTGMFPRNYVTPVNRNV
UniProt Q3TTA7: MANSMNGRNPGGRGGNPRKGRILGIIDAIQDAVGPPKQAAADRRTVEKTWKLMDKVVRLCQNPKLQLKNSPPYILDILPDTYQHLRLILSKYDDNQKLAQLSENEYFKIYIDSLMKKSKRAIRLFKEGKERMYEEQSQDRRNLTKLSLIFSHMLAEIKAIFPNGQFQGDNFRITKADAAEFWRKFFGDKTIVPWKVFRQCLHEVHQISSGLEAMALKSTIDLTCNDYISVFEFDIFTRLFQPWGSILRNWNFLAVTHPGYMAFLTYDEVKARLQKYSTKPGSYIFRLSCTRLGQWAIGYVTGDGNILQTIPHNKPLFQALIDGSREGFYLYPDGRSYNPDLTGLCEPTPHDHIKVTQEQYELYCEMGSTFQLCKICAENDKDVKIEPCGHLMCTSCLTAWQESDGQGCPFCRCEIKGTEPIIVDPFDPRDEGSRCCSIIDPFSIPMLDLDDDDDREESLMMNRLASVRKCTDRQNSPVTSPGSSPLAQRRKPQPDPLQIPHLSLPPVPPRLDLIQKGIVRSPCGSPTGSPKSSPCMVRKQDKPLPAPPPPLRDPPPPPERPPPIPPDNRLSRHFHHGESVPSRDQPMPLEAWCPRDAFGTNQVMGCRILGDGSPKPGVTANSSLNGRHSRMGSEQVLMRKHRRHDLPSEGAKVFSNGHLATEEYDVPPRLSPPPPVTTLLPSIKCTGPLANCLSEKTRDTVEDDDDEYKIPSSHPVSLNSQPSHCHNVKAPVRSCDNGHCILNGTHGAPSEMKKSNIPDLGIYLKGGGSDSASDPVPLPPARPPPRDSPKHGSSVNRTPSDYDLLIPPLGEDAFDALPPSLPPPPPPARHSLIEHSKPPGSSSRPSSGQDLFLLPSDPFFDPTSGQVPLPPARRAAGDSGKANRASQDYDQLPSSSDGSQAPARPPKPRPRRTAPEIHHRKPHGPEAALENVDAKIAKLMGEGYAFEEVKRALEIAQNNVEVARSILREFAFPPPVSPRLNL

Assays:
Experiment in all cases: co-IP; endogenous proteins from precleared RIPA lysates of BMM (resting, stimulated with 1 ug/ml LPS, or LPS-tolerant and re-challenged); anti-DOK3 or anti-Grb2 antibody on ice 1 h, protein A or G beads at 4 C 1 h; immunoblot
[1] = biological target: T1, DOK3 (mouse (endogenous in BMM)) (UniProt Q9QZK7)
T1 sequence: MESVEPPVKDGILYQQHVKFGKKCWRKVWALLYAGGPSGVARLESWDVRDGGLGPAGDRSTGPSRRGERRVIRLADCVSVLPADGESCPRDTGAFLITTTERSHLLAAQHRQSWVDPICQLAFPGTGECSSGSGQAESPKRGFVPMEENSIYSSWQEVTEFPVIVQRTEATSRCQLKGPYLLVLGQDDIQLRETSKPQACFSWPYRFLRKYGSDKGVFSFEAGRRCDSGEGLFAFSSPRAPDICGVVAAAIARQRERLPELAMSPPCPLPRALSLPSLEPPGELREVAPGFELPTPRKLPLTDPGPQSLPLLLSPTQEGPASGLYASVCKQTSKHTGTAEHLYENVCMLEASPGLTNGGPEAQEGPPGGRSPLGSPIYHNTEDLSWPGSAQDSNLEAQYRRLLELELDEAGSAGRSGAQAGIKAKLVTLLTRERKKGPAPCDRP

[2] = biological target: Grb2 (mouse (endogenous in BMM)) (UniProt Q60631)
[3] = biological target: Grb2 (mouse (endogenous in BMM)) (UniProt Q60631); remark: listed apart in the source

## Cbl-b (from UniProt Q3TTA7 1-982)
[1]
  binding: binds

## Grb2 (from UniProt Q60631 1-217)
[1]
  binding: binds

## SOS1 (from UniProt Q62245 1-1319)
[1]
  binding: binds
[2]
  binding: binds

B1: DOK3 (protein, UniProt Q9QZK7 1-444)
chain: T1 sequence
[3]
  binding: binds
